The list shows a part of the results. The exact form of the protein is not confirmed.

This test deals with T1, ETV4 (UniProt P43268).
T1 sequence: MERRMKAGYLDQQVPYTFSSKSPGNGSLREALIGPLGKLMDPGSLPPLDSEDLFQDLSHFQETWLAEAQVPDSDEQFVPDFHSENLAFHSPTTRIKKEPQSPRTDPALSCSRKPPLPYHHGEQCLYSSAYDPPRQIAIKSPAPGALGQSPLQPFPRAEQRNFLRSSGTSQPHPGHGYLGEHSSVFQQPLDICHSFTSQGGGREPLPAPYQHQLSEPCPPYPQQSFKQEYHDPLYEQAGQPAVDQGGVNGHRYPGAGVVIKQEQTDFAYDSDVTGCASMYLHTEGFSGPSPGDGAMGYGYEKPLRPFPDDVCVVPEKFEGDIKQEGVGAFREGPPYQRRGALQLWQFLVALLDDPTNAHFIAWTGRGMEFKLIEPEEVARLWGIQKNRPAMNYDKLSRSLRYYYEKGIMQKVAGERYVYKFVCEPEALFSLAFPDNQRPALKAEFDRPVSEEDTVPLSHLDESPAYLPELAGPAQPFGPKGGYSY
In words: DAPPL (digital affinity profiling via proximity ligation, sequencing). The settings on record: 10 mM Tris-HCl pH 7.5, 50 mM NaCl, 1 mM DTT, 4% glycerol, room temperature, 30 min; GST-TFs on glutathione beads, 16-mer random dsDNA library, 0.1% …; high values mean tight binding; double strand, one strand shown; scale: fold enrichment (6-mer frequency, TF over GST control).
In turn, ACCTTA yielded a binding signal of 1.21. On to TCCACT, for which the binding signal is 1.56. Under ACACAT stands 1.31. Under GCGAAT stands 1.06; under GCGACC, 1.13; under CTACTG, 1.36.

With CTTGCG, the binding signal turned out to be 1.34. The result for TATAGC reads 1.13; that for AAACGC, 1.27; that for TATGTT, 1.23.

For the sequence GTTCTG, the binding signal worked out at 1.15. For the sequence ACGACA, the binding signal worked out at 1.15. CTGGCA: the binding signal is 1.24. The result for GTTCAC reads 1.2; that for ATACAT, 1.31; that for TCACTC, 1.15.

Sequence GCTCTA came in with a binding signal of 1.25. Turning to TCAAGT, the binding signal was determined as 1.1. Turning to TGCACA, the binding signal was found to be 1.1.

Consider GGTTCA, for which the binding signal turned out to be 0.978. With AATCTA, the binding signal was 1.1. In turn, TCTGAC had a binding signal of 1.22.

In turn, TGGGGT registered a binding signal of 1.03.

CCATAC: the binding signal was 1.21. Sequence ATTGGT returned a binding signal of 1.24.

As for AACTGG, the binding signal stood at 1.31. Take AACCCT: the binding signal was 1.25. The result for ACTGAC reads 1.2.

In turn, GATGTT yielded a binding signal of 1.28. In the case of ACCCTT, the binding signal came out at 1.24. CAACTG yielded a binding signal of 1.11. Regarding ATTACT, the binding signal was 1.32. Consider CTCACA, for which the binding signal came out at 1.43.

In turn, ACCCCC yielded a binding signal of 1.2. Under AATTAT stands 1.23; under GGCTTA, 1.07; under CGTTGC, 1.06. Under AATCTT stands 1.33; under AACACG, 1.19.

The values above are taken from publication PMC7862700.
